Assay results as given in patent US8129527B2, “Analogs of dehydrophenylahistins and their therapeutic use” (Nereus Pharmacuticals, Inc., priority 2006, dated 2012).
Like-named read-outs stand apart in the source and are kept apart here.

Experiments:
[1] = tested on: P388 murine leukemia cells; test: Cytotoxic effect in P388 cells; format: cell-based; conditions: Mus musculus, P388, read-out: IC50 (nM) P-388; Table 2
Description: The cytotoxic effects of phenylahistin, dehydrophenylahistin and various derivatives of dehydrophenylahistin were examined in P388 murine leukemia cells, HT-29 human colon cells, and PC-3 prostatic adenocarcinoma cells.

[2] = tested on: MCF7 human breast carcinoma cells; test: Mitotic progression (mitotic index); format: cell-based

Structure (SMILES): COc1cc2c(c(OC)c1OC)-c1ccc(OC)c(=O)cc1[C@@H](NC(C)=O)CC2 [Colchicine]
- IC50 [1]: 208 ± 68 nM
- IC50 ([2]; MCF7, 20 hours, read-out: mitotic block IC50): 23.8 ± 3.1 nM
- IC50 ([2]; MCF7 cells, 20 hours, read-out: Mitotic block Ave. IC50 ± sd): 23.8 ± 3.1 nM
